Data: PubChem BioAssay AID1794845 (National Center for Advancing Translational Sciences (NCATS), 2023)
In all, about 6,900 compounds went through this assay and fewer than 10 were called active. Calls come from the whole dose curve; as a rule, active = well fitted curve in the direction sought with a large enough effect; inconclusive = small, poorly fitted or top-dose-only effect, or another doubt; inactive = no such curve, though single readings can be large or run the other way. The list shows a part of the results.

Amino acid sequences for entries named in this document (tags omitted). A change or cut given only in a name is not applied to a line headed by its entry.
UniProt C7C422: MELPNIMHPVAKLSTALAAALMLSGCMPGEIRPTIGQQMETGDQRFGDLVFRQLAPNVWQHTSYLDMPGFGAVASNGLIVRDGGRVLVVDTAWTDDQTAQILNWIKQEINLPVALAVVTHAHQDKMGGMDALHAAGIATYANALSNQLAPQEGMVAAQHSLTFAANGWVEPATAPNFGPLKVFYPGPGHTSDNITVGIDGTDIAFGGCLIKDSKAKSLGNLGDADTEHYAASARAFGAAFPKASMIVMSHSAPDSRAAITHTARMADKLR

What follows are compounds tested against Metallo-beta-lactamase type 2 (Klebsiella pneumoniae) (UniProt C7C422) (assay: qHTS to identify inhibitors of the New Delhi Metallo-beta-lactamase (NDM): primary screen against the NCATS Gemini Collection). Settings: NDM-1 enzyme, meropenem hydrolysis, absorbance 300 nm; at 38.4 µM (top of the series) unless noted.
How it was run: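 NDM-1 at 2 nM final in 50 mM HEPES pH 7.0, 1 uM ZnSO4, 0.01% Tween20, preincubated >30 min with compound. Meropenem 50 uM final added; absorbance at 300 nm after 30 min.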
Note: % of control where 0% means no effect.

Activity % (negative = inhibition), inactive:
O=C(NCc1ccccc1Cl)c1ccc2nnc(-c3ccoc3)n2c1 6.12% [at 57.5 µM]
CN1CCN(c2ncnc3c2CN(C2CCCCC2)C(=O)CN3C)CC1 7.11%
O=C(Cc1ccsc1)N1CCC(n2cc(-c3nc(-c4ccccc4)no3)nn2)C1 (stereo not drawn) -1.69%
CC(C)c1nccn1CCCNc1nc(-c2ccncc2)nc2c1cnn2C -0.454%
CCOC(=O)c1cccc(NC(=O)N2CC[C@@H](CC(=O)NCc3ccccc3OC)[C@@H](CC)C2)c1 1.87%
COc1ccccc1-c1noc(CCC(=O)N2CCC(Cc3noc(C)n3)CC2)n1 4.71%
COC[C@@H]1CN(Cc2ccco2)C[C@H]1C(=O)N(C)C 0.78%
CC(=O)NCc1nnc2n1C(C(=O)NC1CCCCCC1)CC2 (stereo not drawn) 3.06% [at 57.5 µM]
CC(C)CC(=O)N1C(C(=O)NCC2CCCO2)COC12CCC(C)CC2 (stereo not drawn) 0.607%
O=C(NCc1ccc(Cl)cc1)c1c[nH]c2ncccc12 5.54% [at 57.5 µM]
COc1ccc(-c2cnc3n[nH]c(-c4ccccc4C)c3n2)cn1 30.4% [at 57.5 µM]
COc1ccc2cc(C3CN(CCC(=O)NC(C)(C)C)CCO3)ccc2c1 (stereo not drawn) -2.11%
Cn1ccnc1C(=O)N1CCC(Cc2ccc(CCC(=O)N3CCCC3)cc2)CC1 -2.12%
Cn1cncc1-c1nnc([C@H]2CCN(CC3CCCCC3)C2)o1 20.3% [at 57.5 µM]
O=C(C1CCCO1)N1CCN(c2nc(-c3cccnc3)nc3c2CNC3)CC1 (stereo not drawn) 15.7%
CCc1ccc(CNC(=O)CN2C(=O)NC3(CCOCC3)C2=O)cc1 8.49%
CC(C)CN[C@H]1CO[C@H]2[C@@H]1OC[C@@H]2Nc1nccc(-c2cccs2)n1 8.35% [at 57.5 µM]
CCc1nc(-c2c3n(c(=O)n(CC(=O)NCc4cccc(OC)c4)c2=O)CCCC3)no1 -6.6%
Cc1cccc2nc(CNC(=O)c3cccc(C4CCNC4)c3)cn12 (stereo not drawn) 15.3%
O=C(NCc1cccc(C(F)(F)F)c1)c1nn(CCOc2ccccc2)c2c1CNCC2 -1.9%
CC(C)CCN1C(=O)CC[C@]2(C(=O)NCc3cccs3)CCCC[C@@H]12 0.919%
O=C(c1ccccn1)N1C[C@@H]2C[C@H](C1)c1ccc(NS(=O)(=O)Cc3ccccc3)c(=O)n1C2 44.6%
CCn1nccc1C(=O)N1CCCC(c2nnc(CN3CCCC3)n2C)C1 (stereo not drawn) -5.8%

Retrieved by structure from the list above, 2 records:
Activity % (negative = inhibition), inactive:
COc1ccc2cc(C3CN(CCC(=O)NC(C)(C)C)CCO3)ccc2c1 (stereo not drawn) -2.11%
CC(C)CCN1C(=O)CC[C@]2(C(=O)NCc3cccs3)CCCC[C@@H]12 0.919%
